No constants are given. Whether binding was seen depends on the method and setting. In cells and extracts the contact can be indirect. Some entries that bind do so weakly or less than the wild type.
Biological target: T1, BmAgo3 (silkworm (endogenous in BmN4)) (UniProt A9ZSZ2)
T1 sequence: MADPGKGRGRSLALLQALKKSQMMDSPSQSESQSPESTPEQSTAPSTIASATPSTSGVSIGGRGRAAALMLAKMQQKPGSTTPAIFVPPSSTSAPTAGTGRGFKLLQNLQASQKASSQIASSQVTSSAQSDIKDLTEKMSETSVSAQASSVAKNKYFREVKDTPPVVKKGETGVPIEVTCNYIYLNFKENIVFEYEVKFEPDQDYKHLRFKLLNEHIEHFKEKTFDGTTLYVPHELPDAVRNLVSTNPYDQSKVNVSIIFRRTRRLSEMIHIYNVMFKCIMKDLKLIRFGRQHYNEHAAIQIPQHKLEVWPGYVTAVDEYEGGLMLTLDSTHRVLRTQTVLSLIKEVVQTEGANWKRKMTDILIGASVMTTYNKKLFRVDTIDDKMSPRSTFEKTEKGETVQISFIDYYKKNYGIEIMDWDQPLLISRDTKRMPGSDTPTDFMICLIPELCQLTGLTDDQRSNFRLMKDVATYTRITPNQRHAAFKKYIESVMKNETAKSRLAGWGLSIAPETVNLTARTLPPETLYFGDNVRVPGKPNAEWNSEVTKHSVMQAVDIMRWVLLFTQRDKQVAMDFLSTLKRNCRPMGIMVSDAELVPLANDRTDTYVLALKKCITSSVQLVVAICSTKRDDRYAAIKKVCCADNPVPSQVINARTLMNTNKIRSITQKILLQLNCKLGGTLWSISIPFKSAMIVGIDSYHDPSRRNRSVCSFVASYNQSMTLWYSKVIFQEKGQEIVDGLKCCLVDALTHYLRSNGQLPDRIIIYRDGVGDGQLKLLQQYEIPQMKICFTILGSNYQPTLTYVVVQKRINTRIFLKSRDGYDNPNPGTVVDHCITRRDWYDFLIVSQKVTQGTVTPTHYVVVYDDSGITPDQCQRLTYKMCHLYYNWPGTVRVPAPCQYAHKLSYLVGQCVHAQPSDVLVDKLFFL
Test: co-IP; tandem IP: first anti-FLAG IP of FLAG-Spn-E-EQ from BmN4 lysate, 3x FLAG peptide eluate diluted with buffer D, second IP with anti-BmAgo3 antibody (or normal rabbit IgG); beads with or without 200 μg/ml RNase A at 30 °C for 15 min; Siwi detected by western blot

binding: binds
B1: Siwi (protein, UniProt A8D8P8 1-899)
chain: MSEPRGRGRARGRAGRGGDGGGPAPRRPGEQAGPSQQSMPPGPRPQPPSGWGPQSSVPPVRAGVPTPTAQAGRASHRVTPTTHEHPGDIDVQQRMQKLELGPHSSGGGDASSVVGRGSRRGGGRVLPETISILRTRPEAVTSKKGTSGTPLDLLANYFTVETTPKWGLYQYHVDISPEEDSTGVRKALMRVHSKTLGGYLFDGTVLYTVNRLHPDPMELYSDRKTDNERMRILIKLTCEVSPGDYHYIQIFNIIIRKCFNLLKLQLMGRDYFDPEAKIDIPEFKLQIWPGYKTTINQYEDRLLLVTEIAHKVLRMDTVLQMLSEYAATKGNNYKKIFLEDVVGKIVMTDYNKRTYRVDDVAWNVSPKSTFKMRDENITYIEYYYKKYNLRIQDPGQPLLISRSKPREIRAGLPELIYLVPELCRQTGLSDEMRANFKLMRSLDVHTKIGPDKRIEKLNNFNRRFTSTPEVVEELATWSLKLSKELVKIKGRQLPPENIIQANNVKYPAGDTTEGWTRDMRSKHLLAIAQLNSWVVITPERQRRDTESFIDLIIKTGGGVGFRMRSPDLVVIRHDGPIEYANMCEEVIARKNPALILCVLARNYADRYEAIKKKCTVDRAVPTQVVCARNMSSKSAMSIATKVAIQINCKLGGSPWTVDIPLPSLMVVGYDVCHDTRSKEKSFGAFVATLDKQMTQYYSIVNAHTSGEELSSHMGFNIASAVKKFREKNGTYPARIFIYRDGVGDGQIPYVHSHEVAEIKKKLAEIYAGVEIKLAFIIVSKRINTRIFVQRGRSGENPRPGTVIDDVVTLPERYDFYLVSQNVREGTIAPTSYNVIEDTTGLNPDRIQRLTYKLTHLYFNCSSQVRVPSVCQYAHKLAFLAANSLHNQPHYSLNETLYFL

— paper PMC11094040
